# Experimental data: PubChem BioAssay AID1259308 (NCATS, 2017)
# Purpose: 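Knock-downs that increase output of a recombinant reporter protein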 (primary screen)
# System: human HEK293 embryonic kidney cells stably expressing firefly luciferase (HEK-CMV-Luc2-Hygro)
# Knock-down reagent: single siRNA against human genes, 0.8 pmol siRNA per well
# Timing: 72 h
# Measured: 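Reporter luminescence and viable-cell signal on separate replicate plates, given as percent of non-targeting control and median/MAD z-scores, plus per-cell luciferase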
# Scale: total luciferase, z-score and total luciferase, % of control: higher = more reporter protein produced; luciferase per cell, z-score: higher = more reporter output per viable cell
# Call rule: 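An siRNA counts as active if its total luciferase robust z-score exceeds 3; genes with two or more such siRNAs out of three were retested with fresh siRNAs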
# Meaning of the calls: active = raised luciferase; inactive = no rise
# The whole screen tested about 59,000 reagents; this is a random part of them. Over the whole deposit, about 1,510 (2.6%) got an active call. 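Calls use total luciferase alone and ignore viability, so some active siRNAs may act by altering cell number.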 Reagents against one gene are numbered here. Not all columns of the deposit are shown. No sequences are given here.
gene knocked down,reagent no.,"total luciferase, z-score","total luciferase, % of control","luciferase per cell, z-score",outcome
ZNF235 (GeneID 9310),1,-0.233,77.3,0.558,inactive
ZNF235 (GeneID 9310),2,-0.539,71.2,-0.0694,inactive
ZNF235 (GeneID 9310),3,-0.0515,80.9,-0.635,inactive
LYPLA2P2 (GeneID 388499),1,0.952,101,0.522,inactive
LYPLA2P2 (GeneID 388499),2,0.432,90.5,-0.0542,inactive
LYPLA2P2 (GeneID 388499),3,-0.868,64.6,0.0366,inactive
TSC1 (GeneID 7248),1,-0.429,73.4,0.517,inactive
TSC1 (GeneID 7248),2,0.646,94.7,0.208,inactive
TSC1 (GeneID 7248),3,-0.798,66,0.742,inactive
NPEPPS (GeneID 9520),1,0.505,91.9,0.738,inactive
NPEPPS (GeneID 9520),2,-0.304,75.8,0.259,inactive
NPEPPS (GeneID 9520),3,0.872,99.2,0.435,inactive
RFXAP (GeneID 5994),1,-0.643,69.1,-0.593,inactive
RFXAP (GeneID 5994),2,-0.691,68.1,-0.452,inactive
RFXAP (GeneID 5994),3,0.666,95.1,-0.301,inactive
DESI1 (GeneID 27351),1,-0.242,77.1,-0.715,inactive
DESI1 (GeneID 27351),2,0.427,90.4,0.297,inactive
DESI1 (GeneID 27351),3,0.616,94.1,0.761,inactive
INTS6 (GeneID 26512),1,0.171,85.3,0.084,inactive
INTS6 (GeneID 26512),2,0.792,97.6,0.0931,inactive
INTS6 (GeneID 26512),3,0.649,94.8,0.00819,inactive
KMT5A (GeneID 387893),1,-0.0318,81.3,0.469,inactive
KMT5A (GeneID 387893),2,2.48,131,2.13,inactive
KMT5A (GeneID 387893),3,1.37,109,0.729,inactive
MUC5B (GeneID 727897),1,-1.14,59.2,-1.24,inactive
MUC5B (GeneID 727897),2,-0.0638,80.6,-0.092,inactive
MUC5B (GeneID 727897),3,1.13,104,1.23,inactive
TMPRSS9 (GeneID 360200),1,-0.396,74,-0.17,inactive
TMPRSS9 (GeneID 360200),2,1.92,120,1.29,inactive
TMPRSS9 (GeneID 360200),3,0.629,94.4,-0.402,inactive

Reprinted from above (12 entries):
gene knocked down,reagent no.,"total luciferase, z-score","total luciferase, % of control","luciferase per cell, z-score",outcome
RFXAP (GeneID 5994),2,-0.691,68.1,-0.452,inactive
RFXAP (GeneID 5994),3,0.666,95.1,-0.301,inactive
DESI1 (GeneID 27351),1,-0.242,77.1,-0.715,inactive
DESI1 (GeneID 27351),2,0.427,90.4,0.297,inactive
DESI1 (GeneID 27351),3,0.616,94.1,0.761,inactive
INTS6 (GeneID 26512),1,0.171,85.3,0.084,inactive
INTS6 (GeneID 26512),2,0.792,97.6,0.0931,inactive
INTS6 (GeneID 26512),3,0.649,94.8,0.00819,inactive
KMT5A (GeneID 387893),1,-0.0318,81.3,0.469,inactive
KMT5A (GeneID 387893),2,2.48,131,2.13,inactive
KMT5A (GeneID 387893),3,1.37,109,0.729,inactive
MUC5B (GeneID 727897),1,-1.14,59.2,-1.24,inactive

Additional reagents follow:
gene knocked down,reagent no.,"total luciferase, z-score","total luciferase, % of control","luciferase per cell, z-score",outcome
FBXO2 (GeneID 26232),1,0.279,87.4,-0.49,inactive
FBXO2 (GeneID 26232),2,0.85,98.8,0.655,inactive
FBXO2 (GeneID 26232),3,0.296,87.8,-0.634,inactive
ZNF354B (GeneID 117608),1,1.18,105,0.793,inactive
ZNF354B (GeneID 117608),2,0.194,85.7,-0.485,inactive
ZNF354B (GeneID 117608),3,0.181,85.5,-0.186,inactive
MAPK13 (GeneID 5603),1,0.115,84.2,0.546,inactive
MAPK13 (GeneID 5603),2,0.691,95.6,0.825,inactive
MAPK13 (GeneID 5603),3,-1.78,46.6,-2.46,inactive
ASAP1 (GeneID 50807),1,2.01,122,1.53,inactive
ASAP1 (GeneID 50807),2,-0.182,78.3,-0.17,inactive
ASAP1 (GeneID 50807),3,0.49,91.6,0.421,inactive
OR2Z1 (GeneID 284383),1,1.56,113,1.36,inactive
OR2Z1 (GeneID 284383),2,-3.33,15.6,-5.92,inactive
OR2Z1 (GeneID 284383),3,1.43,110,0.732,inactive
TBX2 (GeneID 6909),1,0.0666,83.2,0.177,inactive
TBX2 (GeneID 6909),2,0.4,89.8,0.119,inactive
TBX2 (GeneID 6909),3,-2.55,31.3,-2.09,inactive
HDAC8 (GeneID 55869),1,0.0159,82.2,0.121,inactive
HDAC8 (GeneID 55869),2,-0.561,70.7,-0.784,inactive
HDAC8 (GeneID 55869),3,1.24,106,0.898,inactive
PDP1 (GeneID 54704),1,-1.29,56.2,-0.66,inactive
PDP1 (GeneID 54704),2,-0.799,66,-0.984,inactive
PDP1 (GeneID 54704),3,2.01,122,0.248,inactive
CSTF2 (GeneID 1478),1,0.673,95.3,-0.505,inactive
CSTF2 (GeneID 1478),2,0.862,99,0.54,inactive
CSTF2 (GeneID 1478),3,0.611,94,0.31,inactive
RSL24D1 (GeneID 51187),1,-2.51,32,-1.71,inactive
RSL24D1 (GeneID 51187),2,2.31,128,2.64,inactive
RSL24D1 (GeneID 51187),3,-0.861,64.8,-0.96,inactive
PDCD6 (GeneID 10016),1,0.0363,82.6,0.433,inactive
PDCD6 (GeneID 10016),2,-0.753,66.9,-0.516,inactive
PDCD6 (GeneID 10016),3,-0.509,71.8,0.0947,inactive
STRIP2 (GeneID 57464),1,0.341,88.7,0.207,inactive
STRIP2 (GeneID 57464),2,-0.495,72,-0.285,inactive
STRIP2 (GeneID 57464),3,-0.122,79.5,-0.467,inactive
ATP5F1E (GeneID 514),1,-0.885,64.3,-0.297,inactive
ATP5F1E (GeneID 514),2,-0.318,75.6,0.145,inactive
ATP5F1E (GeneID 514),3,0.575,93.3,-0.509,inactive
TES (GeneID 26136),1,0.371,89.3,0.883,inactive
TES (GeneID 26136),2,-0.0672,80.5,-0.285,inactive
TES (GeneID 26136),3,-0.803,65.9,-0.536,inactive
HCRTR2 (GeneID 3062),1,0.488,91.6,-0.185,inactive
HCRTR2 (GeneID 3062),2,-0.461,72.7,-0.722,inactive
HCRTR2 (GeneID 3062),3,-0.243,77.1,-0.524,inactive
